# Measured values reported in PubChem BioAssay AID1347075 (National Center for Advancing Translational Sciences (NCATS), 2019).
# Values joined by “and” are separate entries in the source; they are usually repeats but may differ in a detail not shown here. Identical values can stand only once. The whole screen tested about 400,000 compounds, of which about 5,500 (1.4%) were called active. This list was built around the results that the source calls inconclusive (neither active nor inactive); the mix of calls is not that of the screen. The call rests on the fitted dose curve; in most records, active means well fitted cell-killing curve with a large enough effect; inconclusive means small, poorly fitted or top-dose-only effect, or effect the other way; inactive means flat fitted curve, though single readings scatter. A potency beside an inconclusive call is a rough fit, not a confirmed value.
# Assay: qHTS assay for MDR1-selective chemotherapeutics: Primary screen using the parental adenocarcinoma cell KB-3-1; further: nearly all actives have a fitted effect of over 60% in size
# Details: KB-3-1 viability, CellTiter-Glo ATP luminescence, 72 h; activity change, negative = cytotoxic: at 46.1 µM (top of the series)
# Summary of the method: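 KB-3-1 cells, DMEM (no phenol red) + 10% FBS; compound by pin transfer, 72 h, 37 °C. Readout: CellTiter-Glo luminescence after 10 min. Data normalized, curve-fitted.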
# On the % scale 0 is the no-effect control and ±100 the full control effect; potency means the concentration at half of the fitted maximal effect.
SMILES,Potency,"activity change, negative = cytotoxic"
CCCCCCCCCCCCC/C=C/[C@@H](O)[C@@H](N)CO,"inconclusive: 29.1 µM [cytotoxic, single point]",
O=C(O)C[C@H]1c2cc(C(F)(F)F)ccc2S(=O)(=O)N1C1CCN(Cc2ccccc2)CC1,,inactive: 6.51%
COc1ccccc1NC(=O)COC(=O)c1ccc([N+](=O)[O-])s1,,inactive: 13.9%
O=C(Nc1nnc(C(F)(F)F)s1)c1ccc(Br)s1,active: 4.61 µM,
COc1ccc(OC)c(-c2cc(C(=O)Nc3c(C)nn(Cc4ccccc4Cl)c3C)no2)c1,"inconclusive: 32.6 µM [cytotoxic, partial curve, poor fit]",
COc1ccc(C(=O)C2CCCN(Cc3cccn3-c3ccc(Cl)cn3)C2)c(OC)c1 (configuration not stated),"inconclusive: 10.3 µM [cytotoxic, partial curve, poor fit]",
Oc1ccccc1-c1nc(NCCN2CCOCC2)c2ccccc2n1,"inconclusive: 25.9 µM [cytotoxic, single point]",
CCCC1(c2ccccc2)NC(=O)N(CC(=O)Nc2sc(-c3ccccc3)cc2C(=O)OCC)C1=O (configuration not stated),"inconclusive: 20.6 µM [cytotoxic, partial curve]",
Cc1cc(C)c(/C=N/NC(N)=O)c(C)c1/C=N/NC(N)=O,active: 3.66 µM,
Cc1cc(C)cc(OCC(=O)Nc2nc(-c3ccccn3)cs2)c1,"inconclusive: 16.4 µM [cytotoxic, single point]",
COc1ccc2[nH]c3c(c2c1)CCN1C(=O)C(CC(=O)NCCC2=CCCCC2)C[C@H](C(=O)N(C(C)C)C(C)C)[C@@]31C (some centres not stated),"inconclusive: 29.1 µM [cytotoxic, single point]",
COc1ccc(CC(=O)N2CCc3cc(OC)c(OC)cc3C2COc2cc(C)cc(C)c2)cc1OC (configuration not stated),"inconclusive: 23.1 µM [cytotoxic, partial curve, poor fit]",
CN1CCN(c2ccc(Cl)cc2NC(=O)/C=C/c2cccc(F)c2)CC1,"inconclusive: 29.1 µM [cytotoxic, partial curve, poor fit]",
COC(=O)c1[nH]c2ccc(F)cc2c1NS(=O)(=O)c1ccc(F)c(C)c1,"inconclusive: 29.1 µM [cytotoxic, single point]",
CC(C)C(NC(=O)c1ccc(Cl)cc1)C(=O)NCC1CCCO1 (configuration not stated),,inactive: 9.66%
CCN(c1ccccc1)S(=O)(=O)c1ccc(OC)c(NC(=O)c2ccco2)c1,,inactive: -0.236%
Brc1ccc2c(c1)OCCOCCOc1cc(Br)ccc1OCCOCCOCCO2,"inconclusive: 18.4 µM [cytotoxic, single point]",
CCn1cc(C(=O)NCc2ccco2)c(=O)c2cc(S(=O)(=O)N3CCc4ccccc4C3)ccc21,active: 23.1 µM,
CCOc1ccccc1C=NN1CCCCCC1,"inconclusive: 29.1 µM [rising, single point]",
COC(=O)c1cc(OC)c(OC)cc1NC(=O)c1c(-c2ccccc2Cl)noc1C,"inconclusive: 29.1 µM [cytotoxic, single point]",
CC(=O)Nc1ccc(-c2ccnc3c2CC(C(=O)NCc2ccccc2)O3)cc1 (configuration not stated),active: 0.0651 µM,
CC(C)NC(=O)CCc1nc2cccnc2n1-c1ccccc1,,inactive: 0.945%
Nc1ncnc2c1ccn2[C@H]1CN(Cc2ccc3c(c2)OCO3)C[C@@H](COC(=O)c2ccccc2)O1,,inactive: -1.23%
c1ccc2sc(C3CCN(Cc4nnnn4Cc4ccc5c(c4)OCO5)CC3)nc2c1,active: 23.1 µM,

SMILES,Potency,"activity change, negative = cytotoxic"
O=S(=O)(c1ccccc1)c1nc(-c2ccco2)oc1NCc1ccccc1,,inactive: -1.42%
COc1ccc(NC(=O)Nc2ccc(C(=O)N3CCOCC3)cc2)cc1,,inactive: -1.39%
Cc1ccc(C)c(CN2CCC(CNC(=O)Nc3ccc(Cl)cc3)CC2)c1,"inconclusive: 23.1 µM [cytotoxic, single point]",
COc1ccc(O)c(/C=c2/sc3nc4cc(C)c(C)cc4n3c2=O)c1,"inconclusive: 29.1 µM [cytotoxic, single point]",
O=S(=O)(c1ccc(S(=O)(=O)N2CCCC2)cc1)N1CCCCC1,"inconclusive: 7.31 µM [rising, partial curve]",
CC(=O)N1CCc2cc(S(=O)(=O)CCC(=O)N(C)Cc3ccco3)ccc21,,inactive: -8.31%
Cc1ccc(-c2csc3ncnc(-n4cnc5ccccc54)c23)cc1,"inconclusive: 18.4 µM [cytotoxic, single point]",
O=C(Nc1nc2n(n1)C(c1ccc(F)cc1)C=C(c1ccccc1)N2)c1ccco1 (configuration not stated),,inactive: -3.05%
CCN1/C(=C/C(C)=C/c2sc3ccccc3[n+]2CC)Sc2ccccc21,active: 517 nM and active: 731 nM,
O=C(CSc1nnc(-c2ccncc2)o1)c1ccc2c(c1)OCCO2,"inconclusive: 29.1 µM [rising, single point]",
NC1CCN(c2nc3c(cc2F)c(=O)c(C(=O)O)cn3-c2ccc(F)cc2F)C1 (configuration not stated),,inconclusive: -9.47%
O=C1NC[C@H](Cc2ccccc2)N(C[C@@H]2CCCN2C[C@H](Cc2ccc(O)cc2)N2C[C@H](Cc3ccccc3)N(CCc3ccccc3)C(=O)C2=O)C1=O,"inconclusive: 29.1 µM [cytotoxic, single point]",
CC(=O)N1CCN(c2ccc(NC(=O)c3cccc(Cl)c3Cl)cc2)CC1,,inactive: -1.55%
O=C(CCn1nc(-c2ccccc2)c2ccccc2c1=O)NN1CCOCC1,"inconclusive: 0.58 µM [rising, full curve]",
Cc1cc(NS(=O)(=O)c2ccc(NC(=O)CCSc3ccc(F)cc3)cc2)nc(C)n1,,inactive: 7.16%
Cc1ccc(CNc2ccc3c(c2)OCO3)cc1,"inconclusive: 25.9 µM [cytotoxic, single point]",
O=c1[nH]c(=O)n(-c2ccc(F)cc2)c2c1C(C(F)(F)F)(C(F)(F)F)N=C(c1ccc(F)cc1)N2,,inactive: 0%
CCOc1nc(NC2CCCCC2)nc(NC(C)(C)C)n1,,inactive: -9.38%
Cc1nn2c(=O)cc(COC(=O)Cc3ccccc3)nc2s1,,inactive: -4.29%
COc1ccc(NC(=O)CCCOc2ccc(Cl)c(C)c2)cc1S(=O)(=O)N1CCOCC1,"inconclusive: 23.1 µM [cytotoxic, partial curve, poor fit]",
CC(C)OC(=O)N(C)C[C@@H]1OCc2cn(nn2)CCCC(=O)N([C@@H](C)CO)C[C@H]1C,"inconclusive: 29.1 µM [rising, single point]",
COc1ccc(CN(CC2CCCO2)C(=O)CN2C(=O)C(C)Oc3ccc(C)cc32)cc1OC (configuration not stated),,inactive: -1.94%
C=CCn1c(NCc2ccc(OC)cc2O)nc2ccccc21,,inactive: -13.6%
CSc1ccc(/C=C/C(=O)c2ccc(NC(C)=O)cc2)cc1,"inconclusive: 29.1 µM [cytotoxic, single point]",

SMILES,Potency,"activity change, negative = cytotoxic"
Cc1ccc(-c2csc3ncnc(N4CCN(C(=O)c5ccco5)CC4)c23)cc1,,inactive: -24%
O=C(c1ccco1)N1CCN(C(=O)c2cnn3c2NC(c2cccs2)CC3C(F)(F)F)CC1 (configuration not stated),"inconclusive: 23.1 µM [cytotoxic, partial curve, poor fit]",
O=C(NCCSc1c(-c2ccccc2)[nH]c2ccccc12)c1cc2ccccc2oc1=O,"inconclusive: 14.6 µM [cytotoxic, single point]",
CC(C)(CC(=O)N1CCN(c2ccc(Cl)cc2)CC1)CC1=NS(=O)(=O)c2ccccc2N1,active: 14.6 µM,
COc1ccc([C@H]2CC(=O)C=C(c3cccc(C(C)C)c3)C2)cc1OC,"inconclusive: 32.6 µM [cytotoxic, partial curve, poor fit]",
COc1ccc(/C=C/c2ccnc3ccccc23)c(OC)c1,"inconclusive: 29.1 µM [cytotoxic, single point]",
Cc1cccc(CCNS(=O)(=O)c2ccc(S(=O)(=O)NC3CCCC3)cc2)c1,"inconclusive: 18.4 µM [cytotoxic, single point]",
CCOC(=O)CNC(=O)N1CCc2ccc(NC(=O)c3ccccc3Cl)cc2C1,,inactive: -7.65%
N#Cc1ccc(/C=N/NC(=O)c2cc(-c3cccs3)nc3ccccc23)cc1,"inconclusive: 2.31 µM [cytotoxic, partial curve, poor fit]",
O=c1[nH]cnc2cc(-c3ccccc3)sc12,active: 16.4 µM,
Cc1ccc(S(=O)(=O)N(C)C)cc1NC(=S)NC(=O)C12CC3CC(CC(C3)C1)C2,active: 3.26 µM,
Cc1ccc(C(=O)NNC(=O)c2ccc(Br)s2)cc1S(=O)(=O)N1CCOCC1,"inconclusive: 0.517 µM [rising, full curve]",
CN(Cc1ccc(F)cc1)C(=O)c1cccc(NS(=O)(=O)c2ccccc2)c1,,inactive: 5.6%
Cc1cc(C)cc(NC(=O)c2cc3c(=O)n4ccccc4nc3s2)c1,,inactive: 16.3%
CSCCC(=O)N(C)CC1CCCN(CCc2cccc(C(F)(F)F)c2)C1 (configuration not stated),"inconclusive: 0.731 µM [rising, full curve]",
CC(=O)Nc1cc(-c2ccc(S(C)(=O)=O)cc2)cn2c(-c3ccc(F)c(Cl)c3)cnc12,,inactive: 18.6%
O=C(c1cc(Cl)ccc1[N+](=O)[O-])N1CCc2ccccc2C1,,inactive: 8.22%
CCCSc1nsc(NC(=O)C(c2ccccc2)c2ccccc2)n1,active: 25.9 µM,
COc1ccc(-c2c3c(cc(C)[n+]2[O-])oc2ccc(OC)cc23)cc1,"inconclusive: 29.1 µM [cytotoxic, single point]",
Cc1ccc(C(=O)N2CCSCC2)cc1,,inactive: -0.436%
COc1cccc(/C=N/Nc2nc(N3CCCC3)nc(N3CCCC3)n2)c1O,,inactive: 18%
COC(=O)c1c(-c2ccccc2)csc1N1C(=O)Nc2ccccc2N1O,,inactive: -9.81%
COc1cc2c(cc1O)C(Cc1ccc(O)cc1)NCC2 (configuration not stated),"inconclusive: 29.1 µM [cytotoxic, single point]",
O=C(CSc1nc2nc(-c3cccs3)cc(C(F)(F)F)c2c(=O)[nH]1)C(F)(F)F,"inconclusive: 29.1 µM [cytotoxic, single point]",
